For assay [1], the target named is T1, BRCA1-associated protein-1 (Bap1), endogenous in mouse FAPs (mouse (endogenous in FAPs)) (UniProt Q99PU7).
T1 sequence: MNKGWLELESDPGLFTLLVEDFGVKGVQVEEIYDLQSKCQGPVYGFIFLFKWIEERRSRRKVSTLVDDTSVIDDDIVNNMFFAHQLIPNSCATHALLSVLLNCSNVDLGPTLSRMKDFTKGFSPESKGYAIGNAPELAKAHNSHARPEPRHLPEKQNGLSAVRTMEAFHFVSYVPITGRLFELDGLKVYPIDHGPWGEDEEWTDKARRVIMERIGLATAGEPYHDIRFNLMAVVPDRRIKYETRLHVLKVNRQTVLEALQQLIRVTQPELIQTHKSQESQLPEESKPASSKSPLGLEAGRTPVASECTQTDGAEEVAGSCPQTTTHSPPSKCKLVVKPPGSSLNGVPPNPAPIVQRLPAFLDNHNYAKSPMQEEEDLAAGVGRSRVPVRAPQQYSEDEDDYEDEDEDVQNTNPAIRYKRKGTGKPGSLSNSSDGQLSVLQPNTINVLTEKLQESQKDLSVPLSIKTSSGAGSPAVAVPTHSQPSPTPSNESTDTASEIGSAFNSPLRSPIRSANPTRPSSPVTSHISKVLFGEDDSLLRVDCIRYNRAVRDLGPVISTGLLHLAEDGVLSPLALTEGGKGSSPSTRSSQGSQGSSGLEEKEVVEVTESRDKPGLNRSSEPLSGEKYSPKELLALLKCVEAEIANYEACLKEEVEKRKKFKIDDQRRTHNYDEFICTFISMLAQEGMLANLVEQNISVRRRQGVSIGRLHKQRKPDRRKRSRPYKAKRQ
Kind of assay: co-IP; endogenous reciprocal immunoprecipitation from lysates of freshly isolated mouse FAPs with pre-immune IgG, anti-Bap1 or anti-SMN antibodies; IP buffer 150 mM NaCl, 50 mM Tris, 0.5% Nonidet P-40; overnight at 4°C; immunoblot. A general note: In western blotting, separated proteins are transferred to a membrane and probed.

Protein sequences, listed by entry. Tags and fused reporters are not part of them.
UniProt P97801: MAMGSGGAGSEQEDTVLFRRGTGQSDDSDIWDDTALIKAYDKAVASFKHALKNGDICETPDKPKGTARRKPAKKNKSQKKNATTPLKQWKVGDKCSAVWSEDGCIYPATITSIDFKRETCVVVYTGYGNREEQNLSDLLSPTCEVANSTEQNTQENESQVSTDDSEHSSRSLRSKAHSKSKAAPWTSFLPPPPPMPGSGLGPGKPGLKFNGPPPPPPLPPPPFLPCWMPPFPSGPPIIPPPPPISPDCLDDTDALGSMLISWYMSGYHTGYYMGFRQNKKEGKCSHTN
UniProt Q16637: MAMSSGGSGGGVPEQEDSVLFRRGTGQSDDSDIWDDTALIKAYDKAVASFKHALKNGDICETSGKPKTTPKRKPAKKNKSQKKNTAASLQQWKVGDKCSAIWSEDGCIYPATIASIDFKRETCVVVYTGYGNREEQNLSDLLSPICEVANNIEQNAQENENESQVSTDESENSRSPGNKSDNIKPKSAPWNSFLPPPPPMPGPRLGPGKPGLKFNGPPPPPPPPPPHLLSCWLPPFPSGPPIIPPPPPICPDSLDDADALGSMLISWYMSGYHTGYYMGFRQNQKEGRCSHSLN

The target of assay [2] is intact Bap1 (N-terminal flag-tagged full-length construct) (not stated (human or mouse cDNA cloned)) (UniProt Q92560). Put plainly: co-IP; semi-endogenous co-immunoprecipitation from lysates of HEK293T cells transfected with intact or truncated Bap1; IP buffer 150 mM NaCl, 50 mM Tris, 0.5% Nonidet P-40; overnight at 4°C; immunoblot.

No constants are given. Whether binding was seen depends on the method and setting. In cells and extracts the contact can be indirect. Some binding calls cover weakened binding; strength is not graded here.

As to “survival of motor neuron (SMN) protein, endogenous in mouse FAPs (from UniProt P97801 1-288)”, in assay [1], the binding entry is reported as “binds”. Consider “survival of motor neuron (SMN) protein, endogenous in HEK293T cells (from UniProt Q16637 1-294)”, for which, in assay [2], the binding entry is on record as “binds”.
